# Results from article PMC7819943, “Rice protein-binding microarrays: a tool to detect cis-acting elements near promoter regions in rice”.
# This is one part of the list.
# Biological target: T1, OsSMF1 (Oryza sativa, UniProt Q6ZLB0 1-436)
# T1 sequence: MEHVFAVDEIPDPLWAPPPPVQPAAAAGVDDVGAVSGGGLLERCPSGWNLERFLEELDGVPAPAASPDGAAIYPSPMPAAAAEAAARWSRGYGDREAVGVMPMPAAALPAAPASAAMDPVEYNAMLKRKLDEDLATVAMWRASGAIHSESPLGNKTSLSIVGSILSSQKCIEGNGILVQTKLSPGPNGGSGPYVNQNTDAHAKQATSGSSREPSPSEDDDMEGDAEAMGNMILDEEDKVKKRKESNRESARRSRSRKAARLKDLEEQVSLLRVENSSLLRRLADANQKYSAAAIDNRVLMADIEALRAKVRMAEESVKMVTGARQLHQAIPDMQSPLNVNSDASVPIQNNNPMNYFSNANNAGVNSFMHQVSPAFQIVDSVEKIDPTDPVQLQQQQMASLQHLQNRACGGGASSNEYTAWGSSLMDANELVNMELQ
# Experiment: protein-binding microarray (RPBM); PBS, 2% BSA, 51.3 ng/ul salmon testes DNA, 50 uM zinc acetate, 200 nM TF, 25 C, 1 h; high values mean tight binding
# Conditions: protein: recombinant; tags: N-terminal polyhistidine and DsRed monomer fusion (pET32a); chain copies: 2; label: CyDye5-dUTP incorporated in the synthesized complementary strand; 3' TTTTT single-stranded linker to array surface; dsDNA, one strand shown
# Outline: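 The binding signal is fluorescence intensity per feature, in arbitrary units, read on an Axon 4000B scanner. Polyhistidine- and DsRed-tagged transcription factors (N-terminal fusions) from E. coli BL21-CodonPlus were purified on Ni–NTA and applied at 200 nM for 1 h at 25 °C to a double-stranded, BSA-blocked custom Agilent array in buffer with 50 µM zinc acetate.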
row,Sequence,binding signal
1,TCTTTCTAGCACTCTGGTCCCACGTGTCATTATCTTAGAACGGAGTCACCTAGTGCAG,11900 fluorescence intensity (a.u.)
2,TTGCATCCACATATGATGTGGAATGAAGCAGCTGCTCGCACGGAGTCACCTAGTGCAG,3670 fluorescence intensity (a.u.)
3,ATGCTCCGGTGGACGTCATCTTCAGGCAAATCAAAACGATCGGAGTCACCTAGTGCAG,3400 fluorescence intensity (a.u.)
4,ACCAACTACACACTGACTGACATGTGGTCCCGGTGGGGCCCGGAGTCACCTAGTGCAG,4210 fluorescence intensity (a.u.)
5,TTTAATTAACAAAATTATTGGTGACAGAGACCGAATATATCGGAGTCACCTAGTGCAG,3360 fluorescence intensity (a.u.)
6,GTCTCCCACGTGTCCCATTCGCATCCGATTTGGCAATCTCCGGAGTCACCTAGTGCAG,5360 fluorescence intensity (a.u.)
7,GCTCCTCGGTCTCGGCGTTATCGGTGGCGTCACTGTCGTACGGAGTCACCTAGTGCAG,7320 fluorescence intensity (a.u.)
8,GTGTTCCGCAGCGGCCGGGAGACGCGCCGGCTTGTCCCCTCGGAGTCACCTAGTGCAG,42300 fluorescence intensity (a.u.)
9,ATGGATACAAAACCCATACGTGGCGCTTGCATGGCAATTACGGAGTCACCTAGTGCAG,6820 fluorescence intensity (a.u.)
10,CCCGGGCCTCGCCGCGCCGCGCCACGCCACGCCTCCGCCCCGGAGTCACCTAGTGCAG,7580 fluorescence intensity (a.u.)
11,GTCAAATCATGACGTAATTAGGCTTAAAAGATTTGTCTCGCGGAGTCACCTAGTGCAG,10000 fluorescence intensity (a.u.)
12,CACTCCATATTCAATGGAATGCCAGCGAAGGACGTGGTATCGGAGTCACCTAGTGCAG,4400 fluorescence intensity (a.u.)
13,AGTTTCCATATAAGAACCCAATAATCAAAATTCAAAATAACGGAGTCACCTAGTGCAG,33300 fluorescence intensity (a.u.)
14,GGGAGAGAAATAGATGAGGAAGAAGGGTTGGCGGTTGACACGGAGTCACCTAGTGCAG,3210 fluorescence intensity (a.u.)
15,ATATTTAACGGCTGTTGGTTTAGTGTTGTTGTAGGTGACTCGGAGTCACCTAGTGCAG,3470 fluorescence intensity (a.u.)
16,TAACAATGGGGAAACTCCTCTAGATATATCACGGTACAAGCGGAGTCACCTAGTGCAG,3240 fluorescence intensity (a.u.)
17,ATTCTGTTGCGTCATCATGTTCCTGTCTACAGAGCTATACCGGAGTCACCTAGTGCAG,8200 fluorescence intensity (a.u.)
18,CTCTCTCCCTTATCTACGGACTAAGAAACAGATGGTGGCGCGGAGTCACCTAGTGCAG,3920 fluorescence intensity (a.u.)
19,TCACCGTCGCTGTTCGCCTTTGCACGGACGTCACCACCACCGGAGTCACCTAGTGCAG,4220 fluorescence intensity (a.u.)
20,CTCGCTCCCCGTCGTAGACGTCGCCTTCGCCGTCGCTCTCCGGAGTCACCTAGTGCAG,4480 fluorescence intensity (a.u.)
21,CATCATCATTATCATCAACAACAACATCATCAGCCTTTAGCGGAGTCACCTAGTGCAG,4930 fluorescence intensity (a.u.)

# No new results follow: an excerpt of the list.
row,Sequence,binding signal
19,TCACCGTCGCTGTTCGCCTTTGCACGGACGTCACCACCACCGGAGTCACCTAGTGCAG,4220 fluorescence intensity (a.u.)
20,CTCGCTCCCCGTCGTAGACGTCGCCTTCGCCGTCGCTCTCCGGAGTCACCTAGTGCAG,4480 fluorescence intensity (a.u.)
21,CATCATCATTATCATCAACAACAACATCATCAGCCTTTAGCGGAGTCACCTAGTGCAG,4930 fluorescence intensity (a.u.)

# More records follow:

row,Sequence,binding signal
1,CGGGGCTCGATCGTGTGCGATGTGTGTGTGGCGTGGCCGGCGGAGTCACCTAGTGCAG,3820 fluorescence intensity (a.u.)
2,GCAATTGCCCGTCACGCCTCGTCTTCCTCGTCGTCTTGCACGGAGTCACCTAGTGCAG,3770 fluorescence intensity (a.u.)
3,CCCATCAACTTGCCTCACTTGAAGCTACAATCAAGAAATCCGGAGTCACCTAGTGCAG,31300 fluorescence intensity (a.u.)
4,ATTTGATCCTTATTATTAACCGCTGTTGAATTCAGCAAACCGGAGTCACCTAGTGCAG,29900 fluorescence intensity (a.u.)
5,CGCGGGTATACCGTATCGGTACCCATCGTATATCCGAGGACGGAGTCACCTAGTGCAG,5100 fluorescence intensity (a.u.)
6,CAGATACAGTCTTCTTCCTGGCGTCCAAGCTGCTCAAGACCGGAGTCACCTAGTGCAG,23500 fluorescence intensity (a.u.)
7,ACCCATGTGCCCATGCCCGACCCATGCCCGAAAGGGCTATCGGAGTCACCTAGTGCAG,3610 fluorescence intensity (a.u.)
8,TAATCCTGTGTTCCATGCAAGGACTAAGCACATAGAAGTTCGGAGTCACCTAGTGCAG,20900 fluorescence intensity (a.u.)
9,CGCGCGATTCGCCGCTGCTGTTCATCTTCCAGACAGGAGGCGGAGTCACCTAGTGCAG,3840 fluorescence intensity (a.u.)
10,GGGTGATTGAATCCTTGTCATCTAGTGTAAGGCATCTTTCCGGAGTCACCTAGTGCAG,4510 fluorescence intensity (a.u.)
11,CACAATCTGCACGCCATATCTGACTACACATATACAACGCCGGAGTCACCTAGTGCAG,3360 fluorescence intensity (a.u.)
12,GGGAGAGGTGGAGACCAGGAGGTGGGGTGGCGGAGGTCATCGGAGTCACCTAGTGCAG,4070 fluorescence intensity (a.u.)
13,AATATTATAGTCACATCTTCACAAAATCAGCTACTGTTATCGGAGTCACCTAGTGCAG,3430 fluorescence intensity (a.u.)
14,CTAATATAAGTATTCATGTGTTTCTTTAACCCACATTATCCGGAGTCACCTAGTGCAG,3330 fluorescence intensity (a.u.)
15,CCCAATCCGAACGGGACAGCTGCCCACGTGCGACCCATGTCGGAGTCACCTAGTGCAG,4920 fluorescence intensity (a.u.)
16,CAGTAGGGCAAGGCGGTGTCGGCGAGCGCGCGGTGGTGGACGGAGTCACCTAGTGCAG,23400 fluorescence intensity (a.u.)
17,GAGGCGGTGGAGTGGTGAACACGTCAGTCCGGTGACGTGGCGGAGTCACCTAGTGCAG,21400 fluorescence intensity (a.u.)
18,AATCTTCTTCAAAACGTCATTACAGCCAAAGAAAAGCATGCGGAGTCACCTAGTGCAG,3710 fluorescence intensity (a.u.)
19,TATCATCATATAAAGAAGACTGAGGTTGTGGACTTGTCTACGGAGTCACCTAGTGCAG,4580 fluorescence intensity (a.u.)
20,GCGCAGATCGAGCTTGCATGGGCTGGCTAGCTCCCTGGTACGGAGTCACCTAGTGCAG,7710 fluorescence intensity (a.u.)
21,ACGGCGGCAGCCAGCTCGACCTCCCCACCGCCCATCTGGTCGGAGTCACCTAGTGCAG,3420 fluorescence intensity (a.u.)
